The list shows only some results of the screen, not a fair sample: it is rich in T/C values a quarter to a half above the control, in often repeated tests (any T/C) and in doses without a T/C. Other doses and runs of a compound stand elsewhere. T/C is the treated group as % of the vehicle group. Some doses have a count of surviving animals in place of a T/C: the source holds a T/C of zero for them, seemingly a mark for toxic or unscored doses. Some survivor counts are full or nearly so, which does not show that the dose was tolerated: survival well below the control is almost never listed, so the zero probably covers shortened survival too. Counts of survivors are from the toxicity check (mostly the fifth day) where no day follows; animals may have died later. Schedules are NCI's codes, taken here to give the interval after Q, in days (D) or hours (H), and the number of doses after X. Some structures stand for samples that the source files as different forms (salt, stereo form or complex); doses refer to the form tested. Where survival is the endpoint, the PubChem record calls one and a half times the control and up active, and a quarter to a half above the control has no call in these data; cut-offs in other NCI protocols can differ. Some entries hold several experiments; their values stand side by side, smallest first.
System: L1210 leukemia ip in BDF1 mice, survival T/C
Assay: NCI In Vivo Anticancer Drug Screen. Data for tumor model L1210 Leukemia (intraperitoneal) in B6D2F1 (BDF1) mice
Conditions: T/C endpoint: mean survival time, higher T/C = longer survival
[1] = dose: 400.0 mg/kg/injection, schedule: Q01DX001 (ip), vehicle: saline
[2] = dose: 100.0 mg/kg/injection, schedule: Q01DX009 (ip), vehicle: Klucel (hydroxypropylcellulose) (HPC)
[3] = dose: 200.0 mg/kg/injection, schedule: Q01DX009 (ip), vehicle: Klucel (hydroxypropylcellulose) (HPC)

SMILES: O=NN(CCCl)C(=O)Nc1ccc(S(=O)(=O)c2ccc(NC(=O)N(CCCl)N=O)cc2)cc1
- T/C (dose: 1.5 mg/kg/injection, schedule: Q01DX001 (ip), vehicle: carboxymethylcellulose (CMC)): 126 % of control
- T/C (dose: 3.0 mg/kg/injection, schedule: Q01DX001 (ip), vehicle: carboxymethylcellulose (CMC)): 131 % of control
- T/C (dose: 6.0 mg/kg/injection, schedule: Q01DX001 (ip), vehicle: carboxymethylcellulose (CMC)): 127 % of control
- T/C (dose: 15.0 mg/kg/injection, schedule: Q01DX001 (ip), vehicle: carboxymethylcellulose (CMC)): 141 % of control
- T/C (dose: 30.0 mg/kg/injection, schedule: Q01DX001 (ip), vehicle: carboxymethylcellulose (CMC)): 138 % of control
- T/C (dose: 60.0 mg/kg/injection, schedule: Q01DX001 (ip), vehicle: carboxymethylcellulose (CMC)): 146 % of control
- T/C (dose: 120.0 mg/kg/injection, schedule: Q01DX001 (ip), vehicle: carboxymethylcellulose (CMC)): 142 % of control
- T/C (dose: 177.0 mg/kg/injection, schedule: Q01DX009 (ip), vehicle: carboxymethylcellulose (CMC)): 148 % of control
- T/C (dose: 266.0 mg/kg/injection, schedule: Q01DX001 (ip), vehicle: carboxymethylcellulose (CMC)): 143 % of control
- T/C (dose: 400.0 mg/kg/injection, schedule: Q01DX001 (ip), vehicle: carboxymethylcellulose (CMC)): 139 and 146 % of control

SMILES: Cc1ccc(S(=O)(=O)/C=C(\I)c2ccc([N+](=O)[O-])cc2)cc1
- survivor count [1]: 0 of 6

SMILES: CCCCN=C(NCCCC)c1ccc(NC(=O)c2ccc(C(=O)Nc3ccc(C(=NCCCC)NCCCC)cc3)cc2)cc1
- survivor count (dose: 16.0 mg/kg/injection, schedule: Q01DX015 (ip), vehicle: methylcellulose (MC)): 0 of 6
- survivor count (dose: 31.0 mg/kg/injection, schedule: Q01DX015 (ip), vehicle: methylcellulose (MC)): 0 of 6
- survivor count (dose: 62.0 mg/kg/injection, schedule: Q01DX015 (ip), vehicle: methylcellulose (MC)): 0 of 6
- survivor count (dose: 125.0 mg/kg/injection, schedule: Q01DX015 (ip), vehicle: methylcellulose (MC)): 0 of 6
- survivor count (dose: 250.0 mg/kg/injection, schedule: Q01DX015 (ip), vehicle: methylcellulose (MC)): 0 of 6

SMILES: OC1(c2ccccc2)c2ccccc2C(O)(c2ccccc2)c2c1ccc1ccccc21 (stereo unspecified)
- survivor count (dose: 200.0 mg/kg/injection, schedule: Q01DX009 (ip), vehicle: saline with Tween-80): 6 of 6

SMILES: CN(Cc1cnc(N)nc1N)c1ccc(C(=O)O)cc1
- survivor count (dose: 200.0 mg/kg/injection, schedule: Q01DX001 (ip), vehicle: carboxymethylcellulose (CMC)): 3 of 3

SMILES: CCCCCCC(=O)C1OC1CCCCCCCCC(=O)O (stereo unspecified)
- T/C (dose: 200.0 mg/kg/injection, schedule: Q04DX002 (ip), vehicle: other): 125 % of control

SMILES: COc1ccc(CSc2ncnc3nc[nH]c23)cc1
- T/C (dose: 100.0 mg/kg/injection, schedule: Q01DX015 (ip), vehicle: carboxymethylcellulose (CMC)): 133 % of control

SMILES: O=C(O)C(Cc1cnc[nH]1)Nc1nc(NC(Cc2cnc[nH]2)C(=O)O)[nH]c(=O)n1 (stereo unspecified)
- survivor count (dose: 50.0 mg/kg/injection, schedule: Q01DX009 (ip), vehicle: Klucel (hydroxypropylcellulose) (HPC)): 3 of 3
- survivor count [2]: 3 of 3
- survivor count [3]: 3 of 3

SMILES: CCN(CC)CCOc1ccc(-c2ccccc2)cc1
- survivor count (dose: 200.0 mg/kg/injection, schedule: Q04DX003 (ip), vehicle: saline with Tween-80): 5 of 6

SMILES: CCSCCCCO
- survivor count (dose: 300.0 mg/kg/injection, schedule: Q01DX009 (ip), vehicle: saline): 1 of 6

SMILES: O=C(Nc1ccc(C(=O)O)cc1)Nc1ccccc1Cl
- survivor count (dose: 200.0 mg/kg/injection, schedule: Q04DX002 (ip), vehicle: saline + alcohol): 3 of 3
- survivor count (dose: 400.0 mg/kg/injection, schedule: Q04DX002 (ip), vehicle: saline + alcohol): 2 of 3

SMILES: CN(C)C
- survivor count (dose: 100.0 mg/kg/injection, schedule: Q01DX009 (ip), vehicle: saline): 6 of 6
- survivor count (dose: 200.0 mg/kg/injection, schedule: Q01DX009 (ip), vehicle: saline): 6 of 6
- survivor count (dose: 400.0 mg/kg/injection, schedule: Q04DX002 (ip), vehicle: saline): 1 of 3
- survivor count (dose: 400.0 mg/kg/injection, schedule: Q04DX003 (ip), vehicle: saline): 0 of 6

SMILES: CCOC(=O)N1c2ccc(Cl)cc2C=CC1C#N (stereo unspecified)
- survivor count (dose: 400.0 mg/kg/injection, schedule: Q01DX009 (ip), vehicle: gum acacia): 5 of 6

SMILES: [O-]/[N+](=C\c1ccccc1)c1ccccc1
- survivor count [1]: 0 of 4

SMILES: O=C1/C(=C\c2ccccc2)C(NC2CCCCC2)c2ccccc21 (stereo unspecified)
- survivor count [2]: 0 of 6
- survivor count [3]: 0 of 6
- survivor count (dose: 400.0 mg/kg/injection, schedule: Q01DX009 (ip), vehicle: Klucel (hydroxypropylcellulose) (HPC)): 0 of 6

Reference: PubChem BioAssay AID248 (DTP/NCI, 2004)
